The test concerns the target GST-d2CARD (duck RIG-I CARD domains fused to GST) (duck) (UniProt D3TI84). Nature of the test: pull-down; GST pulldown from lysates of co-transfected chicken DF-1 cells on glutathione Sepharose 4B, 3 to 4 h at 4°C, lysis buffer 50 mM TRIS pH 7.2, 150 mM NaCl, 1% Triton X-100; immunoblot with anti-GST and anti-V5.

Sequences of proteins named here, by UniProt entry; tags and fusion partners are left off.
UniProt Q14258: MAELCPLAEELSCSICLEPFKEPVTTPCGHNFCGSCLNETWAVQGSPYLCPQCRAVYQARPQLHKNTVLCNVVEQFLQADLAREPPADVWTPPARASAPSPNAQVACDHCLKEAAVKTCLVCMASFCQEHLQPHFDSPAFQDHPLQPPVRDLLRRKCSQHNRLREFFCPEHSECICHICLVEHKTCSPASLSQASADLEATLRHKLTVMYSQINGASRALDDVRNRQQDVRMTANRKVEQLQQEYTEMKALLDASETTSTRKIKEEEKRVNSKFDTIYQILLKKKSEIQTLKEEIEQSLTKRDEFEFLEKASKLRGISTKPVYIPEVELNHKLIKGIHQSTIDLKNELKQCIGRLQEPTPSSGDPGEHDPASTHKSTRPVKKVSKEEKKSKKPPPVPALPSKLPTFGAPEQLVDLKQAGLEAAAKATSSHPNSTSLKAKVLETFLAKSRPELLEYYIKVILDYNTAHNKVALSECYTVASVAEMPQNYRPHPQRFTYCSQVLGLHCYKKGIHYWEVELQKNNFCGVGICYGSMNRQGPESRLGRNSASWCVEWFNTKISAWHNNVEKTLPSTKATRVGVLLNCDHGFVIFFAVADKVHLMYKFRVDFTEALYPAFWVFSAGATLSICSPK

No constants are given. Whether binding was seen depends on the method and setting. In cells and extracts the contact can be indirect. Binding can be weak; no strength is given.

In the case of “human TRIM25-V5, in chicken DF-1 cells (from UniProt Q14258 1-630) (enzyme)”, the binding entry is “binds”.
